Results: the supplement of paper PMC10849652
The list shows a part of the results.

Chains of the proteins cited; added tags and fusions are not shown. Lines headed by an entry give the natural chain unless they say otherwise; changes in a name come on top.
UniProt O76003: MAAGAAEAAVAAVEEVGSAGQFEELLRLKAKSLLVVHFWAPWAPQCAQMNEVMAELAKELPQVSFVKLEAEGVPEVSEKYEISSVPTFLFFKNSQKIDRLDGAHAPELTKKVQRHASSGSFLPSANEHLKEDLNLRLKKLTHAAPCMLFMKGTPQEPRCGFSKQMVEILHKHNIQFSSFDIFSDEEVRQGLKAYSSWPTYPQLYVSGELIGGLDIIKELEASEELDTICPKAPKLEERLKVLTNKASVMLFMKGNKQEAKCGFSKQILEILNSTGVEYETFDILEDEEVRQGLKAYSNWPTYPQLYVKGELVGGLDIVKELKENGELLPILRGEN
UniProt Q6ZS86: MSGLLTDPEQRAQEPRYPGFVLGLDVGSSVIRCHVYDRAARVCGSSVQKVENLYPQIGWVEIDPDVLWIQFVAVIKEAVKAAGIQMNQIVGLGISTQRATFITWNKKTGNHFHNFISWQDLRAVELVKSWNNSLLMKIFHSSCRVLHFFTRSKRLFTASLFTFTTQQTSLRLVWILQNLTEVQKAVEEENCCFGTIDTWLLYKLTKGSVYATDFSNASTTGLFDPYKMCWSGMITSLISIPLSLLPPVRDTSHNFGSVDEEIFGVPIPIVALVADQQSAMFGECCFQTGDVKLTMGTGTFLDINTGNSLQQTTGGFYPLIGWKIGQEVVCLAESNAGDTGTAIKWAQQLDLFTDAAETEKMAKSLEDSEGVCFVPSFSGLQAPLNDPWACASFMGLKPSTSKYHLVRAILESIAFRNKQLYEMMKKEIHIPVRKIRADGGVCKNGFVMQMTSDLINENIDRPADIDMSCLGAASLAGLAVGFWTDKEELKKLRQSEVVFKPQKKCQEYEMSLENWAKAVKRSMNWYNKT
UniProt P16278: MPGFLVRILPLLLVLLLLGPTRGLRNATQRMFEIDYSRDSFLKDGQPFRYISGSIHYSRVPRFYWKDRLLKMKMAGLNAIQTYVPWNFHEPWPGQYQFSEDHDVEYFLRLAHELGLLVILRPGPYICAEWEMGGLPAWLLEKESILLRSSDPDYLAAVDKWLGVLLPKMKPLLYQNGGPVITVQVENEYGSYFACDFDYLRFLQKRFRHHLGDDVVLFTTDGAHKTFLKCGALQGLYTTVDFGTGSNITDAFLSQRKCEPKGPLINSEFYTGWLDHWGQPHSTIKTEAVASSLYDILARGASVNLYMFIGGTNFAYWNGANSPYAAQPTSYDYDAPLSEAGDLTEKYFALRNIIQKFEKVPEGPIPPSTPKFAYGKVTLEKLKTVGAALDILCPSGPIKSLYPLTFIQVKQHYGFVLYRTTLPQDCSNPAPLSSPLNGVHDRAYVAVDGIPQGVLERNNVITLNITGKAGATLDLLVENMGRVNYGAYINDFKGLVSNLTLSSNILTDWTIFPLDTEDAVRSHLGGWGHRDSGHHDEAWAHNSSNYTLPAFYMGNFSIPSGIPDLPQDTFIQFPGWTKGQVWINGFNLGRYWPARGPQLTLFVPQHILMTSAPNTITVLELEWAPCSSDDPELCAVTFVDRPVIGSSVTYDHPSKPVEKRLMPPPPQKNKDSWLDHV
UniProt P00505: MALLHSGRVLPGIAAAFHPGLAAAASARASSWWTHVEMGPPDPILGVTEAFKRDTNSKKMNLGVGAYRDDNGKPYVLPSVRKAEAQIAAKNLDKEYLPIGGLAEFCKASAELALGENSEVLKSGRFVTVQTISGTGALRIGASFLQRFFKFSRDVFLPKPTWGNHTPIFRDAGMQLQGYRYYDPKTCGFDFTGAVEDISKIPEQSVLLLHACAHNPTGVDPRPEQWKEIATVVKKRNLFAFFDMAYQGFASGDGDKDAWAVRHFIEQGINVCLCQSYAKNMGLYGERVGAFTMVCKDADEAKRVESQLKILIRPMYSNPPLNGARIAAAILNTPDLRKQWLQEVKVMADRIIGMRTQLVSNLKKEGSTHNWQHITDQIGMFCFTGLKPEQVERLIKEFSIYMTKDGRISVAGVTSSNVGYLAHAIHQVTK
UniProt Q9UKD1: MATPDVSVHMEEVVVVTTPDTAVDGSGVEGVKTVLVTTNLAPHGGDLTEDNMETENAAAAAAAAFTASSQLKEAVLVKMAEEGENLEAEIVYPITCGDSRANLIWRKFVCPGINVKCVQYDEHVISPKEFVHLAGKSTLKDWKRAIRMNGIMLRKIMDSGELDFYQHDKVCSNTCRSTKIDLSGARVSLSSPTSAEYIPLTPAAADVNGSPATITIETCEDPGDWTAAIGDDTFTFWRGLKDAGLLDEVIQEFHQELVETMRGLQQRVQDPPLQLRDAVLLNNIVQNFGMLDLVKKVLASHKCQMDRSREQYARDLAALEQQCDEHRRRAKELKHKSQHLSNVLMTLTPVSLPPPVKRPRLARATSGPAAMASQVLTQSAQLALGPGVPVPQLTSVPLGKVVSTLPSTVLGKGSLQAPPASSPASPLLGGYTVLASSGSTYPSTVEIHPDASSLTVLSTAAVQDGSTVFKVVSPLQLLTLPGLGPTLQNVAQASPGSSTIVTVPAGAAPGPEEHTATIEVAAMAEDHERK
UniProt Q8TBA6: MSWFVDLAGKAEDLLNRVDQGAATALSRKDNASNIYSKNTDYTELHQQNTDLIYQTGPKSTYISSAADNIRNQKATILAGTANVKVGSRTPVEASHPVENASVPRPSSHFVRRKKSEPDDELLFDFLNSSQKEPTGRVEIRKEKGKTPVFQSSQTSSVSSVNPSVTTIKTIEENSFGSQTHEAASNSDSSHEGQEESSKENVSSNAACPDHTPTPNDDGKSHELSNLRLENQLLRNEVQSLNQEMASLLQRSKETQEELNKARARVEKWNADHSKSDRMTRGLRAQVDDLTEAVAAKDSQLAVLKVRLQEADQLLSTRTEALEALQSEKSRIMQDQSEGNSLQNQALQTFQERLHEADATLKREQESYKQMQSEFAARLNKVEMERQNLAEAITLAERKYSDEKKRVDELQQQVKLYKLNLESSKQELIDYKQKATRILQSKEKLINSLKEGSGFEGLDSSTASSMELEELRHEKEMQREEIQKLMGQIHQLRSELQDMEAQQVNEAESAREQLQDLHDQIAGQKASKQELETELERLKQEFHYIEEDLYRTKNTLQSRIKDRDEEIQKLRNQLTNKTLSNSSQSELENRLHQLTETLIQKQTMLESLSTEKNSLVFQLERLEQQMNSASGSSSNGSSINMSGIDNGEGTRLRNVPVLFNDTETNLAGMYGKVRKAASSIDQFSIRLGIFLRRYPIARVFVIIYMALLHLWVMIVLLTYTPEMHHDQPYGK
UniProt O75496: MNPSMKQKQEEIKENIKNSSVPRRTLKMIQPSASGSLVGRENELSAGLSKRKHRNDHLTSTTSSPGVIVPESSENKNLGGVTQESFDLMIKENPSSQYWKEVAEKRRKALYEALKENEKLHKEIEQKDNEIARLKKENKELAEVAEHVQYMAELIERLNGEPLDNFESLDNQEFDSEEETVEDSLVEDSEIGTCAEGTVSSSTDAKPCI
UniProt Q9UBQ7: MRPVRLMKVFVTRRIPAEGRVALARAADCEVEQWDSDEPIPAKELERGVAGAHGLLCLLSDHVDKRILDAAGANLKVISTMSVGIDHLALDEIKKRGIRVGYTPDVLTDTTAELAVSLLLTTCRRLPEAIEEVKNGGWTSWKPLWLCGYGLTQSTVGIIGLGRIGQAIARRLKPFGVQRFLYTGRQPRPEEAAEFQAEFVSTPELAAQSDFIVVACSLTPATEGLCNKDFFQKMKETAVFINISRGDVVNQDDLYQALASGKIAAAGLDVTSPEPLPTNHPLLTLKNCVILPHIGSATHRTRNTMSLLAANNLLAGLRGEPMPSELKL
UniProt Q08379: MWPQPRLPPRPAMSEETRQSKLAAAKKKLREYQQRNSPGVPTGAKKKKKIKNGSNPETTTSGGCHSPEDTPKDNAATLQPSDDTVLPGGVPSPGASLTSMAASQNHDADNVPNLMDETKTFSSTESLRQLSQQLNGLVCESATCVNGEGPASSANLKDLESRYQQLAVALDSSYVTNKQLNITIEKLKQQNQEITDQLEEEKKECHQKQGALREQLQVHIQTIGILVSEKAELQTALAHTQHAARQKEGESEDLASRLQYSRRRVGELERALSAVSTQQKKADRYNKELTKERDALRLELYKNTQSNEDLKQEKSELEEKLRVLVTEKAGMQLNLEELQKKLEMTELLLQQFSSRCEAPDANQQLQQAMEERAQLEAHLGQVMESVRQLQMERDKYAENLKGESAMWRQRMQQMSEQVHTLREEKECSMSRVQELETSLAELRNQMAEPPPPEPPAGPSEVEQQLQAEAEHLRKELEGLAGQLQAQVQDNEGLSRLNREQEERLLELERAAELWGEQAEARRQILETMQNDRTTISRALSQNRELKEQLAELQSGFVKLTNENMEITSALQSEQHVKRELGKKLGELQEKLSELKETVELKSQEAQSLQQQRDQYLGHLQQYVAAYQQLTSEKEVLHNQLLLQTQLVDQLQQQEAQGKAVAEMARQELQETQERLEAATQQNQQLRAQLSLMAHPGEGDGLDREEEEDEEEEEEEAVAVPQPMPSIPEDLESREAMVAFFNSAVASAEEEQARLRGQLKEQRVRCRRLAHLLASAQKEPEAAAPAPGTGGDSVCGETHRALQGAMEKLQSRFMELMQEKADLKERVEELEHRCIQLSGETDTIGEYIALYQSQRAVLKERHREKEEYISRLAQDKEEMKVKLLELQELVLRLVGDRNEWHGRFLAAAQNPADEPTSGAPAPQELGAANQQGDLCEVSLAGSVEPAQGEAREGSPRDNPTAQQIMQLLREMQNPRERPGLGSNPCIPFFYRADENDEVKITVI

Legend:
Experiment in all cases: log2 fold change, soluble protein after heating vs DMSO (PISA); higher = thermal stabilisation; K562 cells, 10 uM, 30 min; active = over 0.2 and 3.5 SD of the protein, either way, in both replicates (recomputed)
[1] = compound: C1=CC=C(C=C1)[C@H](COC2=CC3=C(C=C2)NC(=O)N3)NC(=O)C4=CC=CN(C4=O)CC5=CC(=C(C=C5)F)F
Outline: (§1)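 Soluble protein was defined as the supernatant after 21,000xg for 90 min. It came from K562 cells at 2×10^6 cells/mL given 10 μM compound for 30 min, heated in aliquots for 3 min across 48°C-58°C, pooled, and extracted in PBS with 0.5% NP-40 at 4°C, and was quantified by TMTpro 16plex LC-MS/MS with equalised channel sums. Thermal stability against control samples, from duplicates, is reported as log2 fold change.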

[2] = compound: CC1=C(SC2=C1C(=N[C@H](C3=NN=C(N32)C)CC(=O)N)C4=CC=C(C=C4)Cl)C
Outline: as §1

[3] = compound: CC1=C2C(=CC=C1)N=C(N(C2=O)C3=CC=CC=C3C)CN4C=NC5=C(N=CN=C54)N
Outline: as §1

[4] = compound: Cc1sc2c(c1C)C(c1ccc(Cl)cc1)=N[C@@H](CC(=O)OC(C)(C)C)c1nnc(C)n1-2
Outline: as §1

[5] = compound: c1ccc([C@@H]2C[C@H]2NC2CCNCC2)cc1
Outline: as §1

Measured: log2 fold change

GLRX3 (UniProt O76003)
inactive: [1] 0.04 | [2] 0.072 | [3] 0.072 | [4] -0.033 | [5] -0.018

GK5 (UniProt Q6ZS86)
inactive: [1] 0.097 | [2] 0.018 | [3] 0.106 | [4] 0.135 | [5] 0.084

GLB1 (UniProt P16278)
inactive: [1] 0.042 | [2] -0.065 | [3] 0.011 | [4] -0.043 | [5] 0.026

GOT2 (UniProt P00505)
inactive: [1] 0.002 | [2] 0.008 | [3] -0.041 | [4] -0.005 | [5] 0.015

GMEB2 (UniProt Q9UKD1)
inactive: [1] 0.037 | [2] 0.073 | [3] 0.068 | [4] -0.007 | [5] -0.016

2 neighbouring records already listed, for reference:
GK5 (UniProt Q6ZS86)
inactive: [1] 0.097 | [2] 0.018 | [3] 0.106 | [4] 0.135 | [5] 0.084

GLB1 (UniProt P16278)
inactive: [1] 0.042 | [2] -0.065 | [3] 0.011 | [4] -0.043 | [5] 0.026

Further records.

GOLGA5 (UniProt Q8TBA6)
inactive: [1] 0.011 | [2] -0.023 | [3] 0.027 | [4] -0.053 | [5] 0.029

GMNN (UniProt O75496)
inactive: [1] 0.033 | [2] 0.01 | [3] 0.011 | [4] -0.018 | [5] 0.011

GRHPR (UniProt Q9UBQ7)
inactive: [1] 0.004 | [2] 0.099 | [3] 0.002 | [4] -0.099 | [5] -0.023

GOLGA2 (UniProt Q08379)
inactive: [1] -0.052 | [2] -0.031 | [3] -0.026 | [4] 0.027 | [5] 0.035
